According to the supplement of paper PMC6411743:
± gives the standard deviation of the averaged measurements. The list shows a part of the results, in another mix than the full data. Most entries show no effect beyond the scatter of the controls.

Protein sequences, listed by entry. Tags and fused reporters are not part of them. Lines headed by an entry give the natural chain unless they say otherwise; changes in a name come on top.
UniProt P12694: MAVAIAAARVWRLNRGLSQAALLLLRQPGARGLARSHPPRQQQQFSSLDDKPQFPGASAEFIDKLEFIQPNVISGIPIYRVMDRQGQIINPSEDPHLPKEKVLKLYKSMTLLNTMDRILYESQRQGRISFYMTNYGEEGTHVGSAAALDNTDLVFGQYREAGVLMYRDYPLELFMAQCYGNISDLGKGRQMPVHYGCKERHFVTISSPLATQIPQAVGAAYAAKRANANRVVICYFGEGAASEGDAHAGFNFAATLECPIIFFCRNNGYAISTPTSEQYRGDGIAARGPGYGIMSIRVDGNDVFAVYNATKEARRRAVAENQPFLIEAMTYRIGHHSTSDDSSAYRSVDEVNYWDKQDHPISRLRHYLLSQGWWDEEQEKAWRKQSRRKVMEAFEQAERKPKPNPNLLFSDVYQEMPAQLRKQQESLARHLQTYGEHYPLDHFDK
UniProt Q6ZUM4: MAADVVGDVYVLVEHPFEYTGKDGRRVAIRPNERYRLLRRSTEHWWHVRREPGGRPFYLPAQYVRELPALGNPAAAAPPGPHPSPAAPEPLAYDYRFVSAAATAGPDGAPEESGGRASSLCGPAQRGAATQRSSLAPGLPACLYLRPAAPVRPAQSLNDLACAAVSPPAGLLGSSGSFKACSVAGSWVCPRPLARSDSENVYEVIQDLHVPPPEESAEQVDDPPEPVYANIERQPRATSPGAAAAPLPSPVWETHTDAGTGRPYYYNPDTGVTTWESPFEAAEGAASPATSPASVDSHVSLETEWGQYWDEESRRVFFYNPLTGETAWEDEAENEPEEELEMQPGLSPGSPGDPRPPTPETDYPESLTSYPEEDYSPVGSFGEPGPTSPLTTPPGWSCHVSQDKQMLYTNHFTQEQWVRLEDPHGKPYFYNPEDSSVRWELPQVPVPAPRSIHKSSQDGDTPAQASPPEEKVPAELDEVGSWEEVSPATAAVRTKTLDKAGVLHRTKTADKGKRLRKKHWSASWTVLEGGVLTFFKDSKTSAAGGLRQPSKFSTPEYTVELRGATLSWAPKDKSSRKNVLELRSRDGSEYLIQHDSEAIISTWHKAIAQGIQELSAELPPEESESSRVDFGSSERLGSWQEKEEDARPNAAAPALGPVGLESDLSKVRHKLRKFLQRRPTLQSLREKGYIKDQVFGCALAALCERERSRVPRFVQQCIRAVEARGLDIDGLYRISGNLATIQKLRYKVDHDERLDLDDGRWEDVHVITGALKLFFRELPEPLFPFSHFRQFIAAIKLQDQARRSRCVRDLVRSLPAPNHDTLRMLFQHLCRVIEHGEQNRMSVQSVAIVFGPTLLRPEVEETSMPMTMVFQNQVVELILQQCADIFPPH
UniProt Q14254: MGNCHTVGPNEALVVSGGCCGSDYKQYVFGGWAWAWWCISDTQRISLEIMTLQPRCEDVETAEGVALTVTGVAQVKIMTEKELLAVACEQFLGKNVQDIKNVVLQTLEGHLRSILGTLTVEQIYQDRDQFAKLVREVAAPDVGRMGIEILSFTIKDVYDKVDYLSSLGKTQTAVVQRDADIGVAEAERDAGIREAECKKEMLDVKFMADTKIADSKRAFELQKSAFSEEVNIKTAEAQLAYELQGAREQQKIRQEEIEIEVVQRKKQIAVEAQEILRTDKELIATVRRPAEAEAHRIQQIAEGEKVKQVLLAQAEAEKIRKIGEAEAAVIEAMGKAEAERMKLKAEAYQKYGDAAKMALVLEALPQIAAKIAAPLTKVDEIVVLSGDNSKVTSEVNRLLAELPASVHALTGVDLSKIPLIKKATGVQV
UniProt O00217, whole entry: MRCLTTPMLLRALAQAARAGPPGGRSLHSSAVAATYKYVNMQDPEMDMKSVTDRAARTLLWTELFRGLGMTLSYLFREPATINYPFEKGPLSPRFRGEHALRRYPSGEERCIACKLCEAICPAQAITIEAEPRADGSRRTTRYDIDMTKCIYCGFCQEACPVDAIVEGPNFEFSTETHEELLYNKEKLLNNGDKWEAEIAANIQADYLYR
UniProt P25208: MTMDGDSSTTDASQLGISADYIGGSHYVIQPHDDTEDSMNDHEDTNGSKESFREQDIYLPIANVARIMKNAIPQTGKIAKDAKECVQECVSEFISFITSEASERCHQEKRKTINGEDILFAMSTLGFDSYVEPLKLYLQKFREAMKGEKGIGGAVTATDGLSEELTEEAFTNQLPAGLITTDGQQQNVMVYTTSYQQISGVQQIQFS
UniProt P61803: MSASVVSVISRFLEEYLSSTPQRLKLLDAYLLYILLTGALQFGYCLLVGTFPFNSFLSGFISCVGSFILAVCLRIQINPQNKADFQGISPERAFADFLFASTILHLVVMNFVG
UniProt Q13490, whole entry: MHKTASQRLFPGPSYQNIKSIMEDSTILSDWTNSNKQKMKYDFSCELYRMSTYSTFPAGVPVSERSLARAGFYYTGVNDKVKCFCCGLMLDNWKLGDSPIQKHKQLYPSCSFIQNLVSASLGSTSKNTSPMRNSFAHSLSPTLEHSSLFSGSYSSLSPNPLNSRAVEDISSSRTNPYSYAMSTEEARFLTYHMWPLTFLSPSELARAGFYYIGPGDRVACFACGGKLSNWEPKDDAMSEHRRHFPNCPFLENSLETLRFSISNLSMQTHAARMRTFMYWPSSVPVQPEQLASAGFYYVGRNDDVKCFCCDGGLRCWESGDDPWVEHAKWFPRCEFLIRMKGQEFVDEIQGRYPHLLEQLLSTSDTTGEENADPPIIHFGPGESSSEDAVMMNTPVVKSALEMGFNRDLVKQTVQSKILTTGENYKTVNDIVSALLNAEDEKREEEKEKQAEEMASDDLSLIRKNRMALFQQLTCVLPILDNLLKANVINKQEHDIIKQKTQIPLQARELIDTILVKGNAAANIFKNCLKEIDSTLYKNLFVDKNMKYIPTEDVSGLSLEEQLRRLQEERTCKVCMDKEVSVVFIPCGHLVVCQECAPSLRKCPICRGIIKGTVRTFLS
UniProt Q9Y3C0: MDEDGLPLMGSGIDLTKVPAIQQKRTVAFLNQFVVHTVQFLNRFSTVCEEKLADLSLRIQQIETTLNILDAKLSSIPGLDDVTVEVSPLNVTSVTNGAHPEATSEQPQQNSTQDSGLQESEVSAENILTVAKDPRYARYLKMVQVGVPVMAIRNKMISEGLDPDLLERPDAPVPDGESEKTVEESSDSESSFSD
UniProt O43493: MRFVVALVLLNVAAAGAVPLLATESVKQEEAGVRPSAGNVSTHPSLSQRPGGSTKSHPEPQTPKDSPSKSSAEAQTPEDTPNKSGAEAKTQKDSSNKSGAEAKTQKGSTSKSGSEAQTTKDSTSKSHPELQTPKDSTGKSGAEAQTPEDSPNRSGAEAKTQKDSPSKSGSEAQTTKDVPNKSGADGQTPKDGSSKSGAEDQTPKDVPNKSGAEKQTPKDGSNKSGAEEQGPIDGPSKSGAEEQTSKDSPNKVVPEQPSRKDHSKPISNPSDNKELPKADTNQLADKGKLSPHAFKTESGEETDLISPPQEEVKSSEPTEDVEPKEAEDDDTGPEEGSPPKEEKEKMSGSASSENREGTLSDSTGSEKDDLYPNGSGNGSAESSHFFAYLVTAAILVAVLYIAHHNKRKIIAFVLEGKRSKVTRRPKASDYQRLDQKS
UniProt Q5HYJ3: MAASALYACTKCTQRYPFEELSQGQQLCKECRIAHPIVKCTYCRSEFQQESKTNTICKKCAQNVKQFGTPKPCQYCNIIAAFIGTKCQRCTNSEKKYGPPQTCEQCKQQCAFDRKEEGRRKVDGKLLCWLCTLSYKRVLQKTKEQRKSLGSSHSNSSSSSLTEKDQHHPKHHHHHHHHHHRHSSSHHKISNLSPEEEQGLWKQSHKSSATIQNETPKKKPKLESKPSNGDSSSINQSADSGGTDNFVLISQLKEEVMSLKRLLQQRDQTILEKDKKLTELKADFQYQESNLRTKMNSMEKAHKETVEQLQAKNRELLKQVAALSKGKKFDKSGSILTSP
UniProt Q9Y4E5: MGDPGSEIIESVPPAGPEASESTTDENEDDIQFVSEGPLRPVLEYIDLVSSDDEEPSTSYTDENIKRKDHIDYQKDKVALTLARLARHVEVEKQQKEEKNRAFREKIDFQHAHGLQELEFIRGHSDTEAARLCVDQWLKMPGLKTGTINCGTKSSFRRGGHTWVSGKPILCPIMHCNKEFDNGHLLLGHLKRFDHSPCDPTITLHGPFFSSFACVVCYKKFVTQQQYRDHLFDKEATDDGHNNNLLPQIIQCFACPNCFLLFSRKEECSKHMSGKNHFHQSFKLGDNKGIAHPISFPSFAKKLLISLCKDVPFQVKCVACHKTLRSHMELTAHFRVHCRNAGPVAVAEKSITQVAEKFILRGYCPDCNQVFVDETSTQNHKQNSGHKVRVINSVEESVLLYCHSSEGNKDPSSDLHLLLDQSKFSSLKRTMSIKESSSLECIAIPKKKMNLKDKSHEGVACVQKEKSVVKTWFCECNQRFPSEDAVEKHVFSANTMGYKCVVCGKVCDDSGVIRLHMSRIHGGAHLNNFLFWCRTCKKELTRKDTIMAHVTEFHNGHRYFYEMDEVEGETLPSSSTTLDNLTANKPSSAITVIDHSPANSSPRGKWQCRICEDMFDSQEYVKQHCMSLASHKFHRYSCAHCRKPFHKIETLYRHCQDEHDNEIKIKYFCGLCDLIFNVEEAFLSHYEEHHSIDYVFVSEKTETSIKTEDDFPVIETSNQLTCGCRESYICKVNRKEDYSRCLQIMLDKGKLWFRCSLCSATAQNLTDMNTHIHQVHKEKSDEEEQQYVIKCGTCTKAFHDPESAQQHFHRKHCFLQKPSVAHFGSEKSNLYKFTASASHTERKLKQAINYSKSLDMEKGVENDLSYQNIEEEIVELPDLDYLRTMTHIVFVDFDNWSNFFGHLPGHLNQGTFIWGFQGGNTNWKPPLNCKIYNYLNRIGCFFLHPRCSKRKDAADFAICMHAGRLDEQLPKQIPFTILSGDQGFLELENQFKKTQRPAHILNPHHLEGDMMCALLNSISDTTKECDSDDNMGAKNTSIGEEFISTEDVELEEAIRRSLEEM
UniProt Q02338: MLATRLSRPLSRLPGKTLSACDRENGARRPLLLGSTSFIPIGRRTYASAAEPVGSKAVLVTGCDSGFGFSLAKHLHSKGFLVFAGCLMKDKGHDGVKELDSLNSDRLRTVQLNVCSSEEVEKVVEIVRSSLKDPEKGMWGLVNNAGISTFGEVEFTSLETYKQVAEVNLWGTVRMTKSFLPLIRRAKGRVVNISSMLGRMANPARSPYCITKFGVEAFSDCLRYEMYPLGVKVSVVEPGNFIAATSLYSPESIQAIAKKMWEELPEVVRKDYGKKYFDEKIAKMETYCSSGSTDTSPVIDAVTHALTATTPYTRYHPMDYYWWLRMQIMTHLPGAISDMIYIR
UniProt P15311, whole entry: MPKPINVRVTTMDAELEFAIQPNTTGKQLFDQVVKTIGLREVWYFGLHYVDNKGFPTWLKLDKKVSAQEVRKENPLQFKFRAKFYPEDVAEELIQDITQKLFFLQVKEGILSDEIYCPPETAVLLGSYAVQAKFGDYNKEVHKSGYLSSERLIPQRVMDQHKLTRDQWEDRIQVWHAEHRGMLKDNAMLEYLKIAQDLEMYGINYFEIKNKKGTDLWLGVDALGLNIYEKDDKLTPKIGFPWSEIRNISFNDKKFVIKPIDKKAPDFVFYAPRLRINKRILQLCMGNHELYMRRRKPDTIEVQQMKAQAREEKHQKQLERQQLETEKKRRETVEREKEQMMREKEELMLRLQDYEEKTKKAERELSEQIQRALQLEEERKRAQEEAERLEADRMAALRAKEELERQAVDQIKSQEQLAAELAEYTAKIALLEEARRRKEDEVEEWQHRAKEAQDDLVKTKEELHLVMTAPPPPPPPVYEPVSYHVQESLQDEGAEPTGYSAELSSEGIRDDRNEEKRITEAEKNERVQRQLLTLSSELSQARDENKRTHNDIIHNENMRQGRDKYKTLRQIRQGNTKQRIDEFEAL
UniProt Q6NXE6: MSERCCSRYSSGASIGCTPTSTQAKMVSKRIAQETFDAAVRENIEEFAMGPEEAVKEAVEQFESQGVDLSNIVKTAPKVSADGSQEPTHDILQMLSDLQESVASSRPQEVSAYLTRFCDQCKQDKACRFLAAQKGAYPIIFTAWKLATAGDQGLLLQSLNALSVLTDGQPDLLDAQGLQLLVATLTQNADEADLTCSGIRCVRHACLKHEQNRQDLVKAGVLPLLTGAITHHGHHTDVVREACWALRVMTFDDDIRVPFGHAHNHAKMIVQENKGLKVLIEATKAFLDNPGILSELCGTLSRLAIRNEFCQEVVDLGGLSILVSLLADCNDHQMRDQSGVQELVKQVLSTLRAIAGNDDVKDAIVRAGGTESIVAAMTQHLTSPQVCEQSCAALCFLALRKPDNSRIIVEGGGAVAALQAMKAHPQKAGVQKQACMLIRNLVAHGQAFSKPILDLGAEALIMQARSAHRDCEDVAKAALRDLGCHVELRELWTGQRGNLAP

Compound: Nc1ncnc2c1ncn2[C@@H]1O[C@H](COP(=O)(O)OP(=O)(O)NP(=O)(O)O)[C@@H](O)[C@H]1O [adenylyl imidodiphosphate]
Assay: NP40-soluble protein abundance relative to vehicle (solubility fold change) (ratio); higher = more soluble protein in presence of AMP-PNP
Summary of the method: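 Values are fold changes against the detergent-processed vehicle, based on vsn-normalised intensities. Jurkat crude lysate was treated at eight concentrations from 0.1 to 10 mM (10 min at room temperature, then 3 min at 37 °C), solubilised with 0.8% NP40 and benzonase, ultracentrifuged and analysed by TMT-labelled LC-MS/MS over three independent experiments.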

| Target | NP40-soluble protein abundance (concentration: 0.1mM) | NP40-soluble protein abundance (concentration: 0.5mM) |
| --- | --- | --- |
| F5H5P2 and related entries (UniProt P12694+F5H5P2) | 1.01 ± 0.045 | 1.05 ± 0.046 |
| E9PNT2 (UniProt Q6ZUM4) | 1.02 ± 0.018 | 0.997 ± 0.026 |
| G3V167 and related entries (UniProt Q9UGN5) | 0.981 ± 0.024 | 0.989 ± 0.075 |
| F8WAE6 and related entries (UniProt Q86YW9) | 0.97623 ± 0.00033 | 0.964 ± 0.041 |
| E7EMK3 and related entries (UniProt Q14254) | 1.05 ± 0.054 | 1.03 ± 0.054 |
| E9PPW7 and related entries (UniProt O00217) | 0.995 ± 0.011 | 0.98 ± 0.013 |
| E9PRF4 and related entries (UniProt Q15047) | 0.969 ± 0.036 | 0.964 ± 0.051 |
| F8VSL3 and related entries (UniProt P25208) | 0.969 ± 0.027 | 1.01 ± 0.058 |
| F5GXX5 and related entries (UniProt P61803) | 1.022 ± 0.01 | 0.944 ± 0.14 |
| E9PMH5 and related entries (UniProt Q13490) | 1.01 ± 0.021 | 0.975 ± 0.064 |
| F5GZ97 and related entries (UniProt Q9Y3C0) | 1.01 ± 0.041 | 1.01 ± 0.022 |
| F8W8W7 and related entries (UniProt O43493) | 0.992 ± 0.025 | 1.02 ± 0.013 |
| F5GX09 and related entries (UniProt Q5HYJ3) | 0.9669 ± 0.0048 | 0.995 ± 0.015 |
| E9PH99 and related entries (UniProt Q9Y4E5) | 1.04 ± 0.044 | 1.05 ± 0.064 |
| E9PCG9 and related entries (UniProt Q02338) | 1.03 ± 0.039 | 0.962 ± 0.067 |
| E7EQR4 and related entries (UniProt P15311) | 0.981 ± 0.013 | 1.03 ± 0.05 |
| F2Z2U4 and related entries (UniProt Q9Y4A5) | 1.03 ± 0.046 | 1.01 ± 0.013 |
| F5H3X1 and related entries (UniProt Q6NXE6) | 1.03 ± 0.046 | 0.979 ± 0.04 |

Full records from above:
F5H5P2 and related entries (UniProt P12694+F5H5P2) as listed: NP40-soluble protein abundance (concentration: 0.1mM): 1.01 ± 0.045; NP40-soluble protein abundance (concentration: 0.5mM): 1.05 ± 0.046
G3V167 and related entries (UniProt Q9UGN5) as listed: NP40-soluble protein abundance (concentration: 0.1mM): 0.981 ± 0.024; NP40-soluble protein abundance (concentration: 0.5mM): 0.989 ± 0.075
